Results deposited as PubChem BioAssay AID1224830 (NIAID, 2016)
Here is one part, drawn at random, of about 18,000 reagents. About 2,900 of them (16%) count as active. 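Calls are made per well; low scores hint the gene aids the LPS response, high scores that it dampens it.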 Entries without a mark were called inactive. Repeated entries: four replicate wells of each siRNA pool. Reagent sequences are not shown.

Aim: 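Genes whose knock-down alters the TNF-alpha reporter response to LPS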 (primary screen)
Cell system: human THP-1 monocytic leukaemia cells, TNF dual-luciferase reporter clone, PMA-differentiated to macrophage-like cells
Reagents: siRNA pool against human genes, 50 nM
Duration: LPS for 4 h, given about 3 days after siRNA transfection
Conditions: bacterial LPS (TLR4 ligand), 10 ng/ml
Measured: 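Ratio of firefly to renilla light, scaled to the plate median and expressed as a robust z-score per replicate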
Reading the numbers: TNF reporter robust z-score: higher = stronger TNF reporter response to LPS
Call rule: 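Each well counts as active if its z-score is over 2.8 or under -1.5; controls are left without a call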

Against DONSON, the entry reads TNF reporter robust z-score 1.35. For DONSON the deposit lists TNF reporter robust z-score 2.32. After knock-down of DONSON the results were TNF reporter robust z-score 0.81. After knock-down of DONSON, the screen gave TNF reporter robust z-score 0.88. Knock-down of AAR2 resulted in: TNF reporter robust z-score -0.3. AAR2 gave TNF reporter robust z-score -0.57.

Against AAR2, the entry reads TNF reporter robust z-score 0.14. Against AAR2 the deposit lists TNF reporter robust z-score -0.16. After knock-down of EMID1, the record shows TNF reporter robust z-score -1.27. With knock-down of EMID1 the results were TNF reporter robust z-score -1.22. Knock-down of EMID1 came out at: TNF reporter robust z-score -1.07. For EMID1 the deposit lists TNF reporter robust z-score -0.86.

For C10orf62 the deposit lists TNF reporter robust z-score -0.72. Against C10orf62, the entry reads TNF reporter robust z-score 0.31. C10orf62 gave TNF reporter robust z-score 0.33. C10orf62 gave TNF reporter robust z-score -0.77. After knock-down of PANK2, the record shows TNF reporter robust z-score -1.22. PANK2 gave TNF reporter robust z-score -0.93.

Against PANK2, the values are TNF reporter robust z-score -1. With knock-down of PANK2, the screen gave TNF reporter robust z-score -0.83. With knock-down of BIN2 the results were TNF reporter robust z-score 0.72. After knock-down of BIN2, the record shows TNF reporter robust z-score 0.86. Against BIN2, the values are TNF reporter robust z-score -0.83. BIN2 scored TNF reporter robust z-score -0.49.

6 entries from above, set out differently.
{"target":"EMID1","TNF reporter robust z-score":-1.22}
{"target":"EMID1","TNF reporter robust z-score":-1.07}
{"target":"EMID1","TNF reporter robust z-score":-0.86}
{"target":"C10orf62","TNF reporter robust z-score":-0.72}
{"target":"C10orf62","TNF reporter robust z-score":0.31}
{"target":"C10orf62","TNF reporter robust z-score":0.33}

Further reagents:
With knock-down of FAM124B, the record shows TNF reporter robust z-score 0.45. FAM124B showed TNF reporter robust z-score 0.02. FAM124B scored TNF reporter robust z-score -0.69. Depletion of FAM124B came out at: TNF reporter robust z-score 0.17. Against MYRIP, the entry reads TNF reporter robust z-score 0.12. After knock-down of MYRIP, the record shows TNF reporter robust z-score -0.72.

For MYRIP, the values are TNF reporter robust z-score 0.24. MYRIP scored TNF reporter robust z-score -0.45. Knock-down of ARX came out at: TNF reporter robust z-score -1.41. Against ARX, the entry reads TNF reporter robust z-score -0.69. Depletion of ARX came out at: TNF reporter robust z-score -1.05. After knock-down of ARX, the screen gave TNF reporter robust z-score -0.32.

Depletion of SCYL2 gave: TNF reporter robust z-score 0.32. For SCYL2 the deposit lists TNF reporter robust z-score 0.59. Depletion of SCYL2 came out at: TNF reporter robust z-score 0.76. Against SCYL2 the deposit lists TNF reporter robust z-score 1.36. PABIR1 showed TNF reporter robust z-score -0.28. PABIR1 scored TNF reporter robust z-score 0.53.

Depletion of PABIR1 gave: TNF reporter robust z-score -0.2. Against PABIR1, the values are TNF reporter robust z-score 0.45. For PXN, the entry reads TNF reporter robust z-score -1.87 (active). Silencing of PXN resulted in: TNF reporter robust z-score -2.41 (active). PXN scored TNF reporter robust z-score -2.23 (active). For PXN the deposit lists TNF reporter robust z-score -1.9 (active).
